Measured values taken from patent US20110098492A1, “CLEANING COMPOSITIONS CONTAINING MID-RANGE ALKOXYLATES” (priority 2008, published 2011).

Tested on: microorganisms derived from activated sludge
Test: OECD 301 F biodegradation (manometric respirometry)
Conditions: aerobic

Substance: C9(BO)1(EO)7 [Example 9]
- OECD 301F Biodegradation, %: 73%
